PubChem BioAssay AID1671190 (National Center for Advancing Translational Sciences (NCATS), 2021)
Several values for one entry are separate records, joined by “and”; a condition that tells them apart may be missing. Identical values can stand only once. Screen size: about 580,000 compounds; about 6,100 (1.1%) were called active. This list was built around the results that the source calls inconclusive (neither active nor inactive); the mix of calls is not that of the screen. Calls come from the whole dose curve; as a rule, active = well fitted inhibition curve with a large enough effect; inconclusive = small, poorly fitted or top-dose-only effect, or another doubt; inactive = no such curve, though single readings can be large or run the other way. Where the call is inconclusive, the potency comes from a doubtful curve fit.
% is set by controls: 0 for no effect and ±100 for the full control effect; potency is the fitted concentration of half-maximal effect.

Sequences of proteins named here, by UniProt entry; tags and fusion partners are left off. A change or cut given only in a name is not applied to a line headed by its entry.
UniProt P18054: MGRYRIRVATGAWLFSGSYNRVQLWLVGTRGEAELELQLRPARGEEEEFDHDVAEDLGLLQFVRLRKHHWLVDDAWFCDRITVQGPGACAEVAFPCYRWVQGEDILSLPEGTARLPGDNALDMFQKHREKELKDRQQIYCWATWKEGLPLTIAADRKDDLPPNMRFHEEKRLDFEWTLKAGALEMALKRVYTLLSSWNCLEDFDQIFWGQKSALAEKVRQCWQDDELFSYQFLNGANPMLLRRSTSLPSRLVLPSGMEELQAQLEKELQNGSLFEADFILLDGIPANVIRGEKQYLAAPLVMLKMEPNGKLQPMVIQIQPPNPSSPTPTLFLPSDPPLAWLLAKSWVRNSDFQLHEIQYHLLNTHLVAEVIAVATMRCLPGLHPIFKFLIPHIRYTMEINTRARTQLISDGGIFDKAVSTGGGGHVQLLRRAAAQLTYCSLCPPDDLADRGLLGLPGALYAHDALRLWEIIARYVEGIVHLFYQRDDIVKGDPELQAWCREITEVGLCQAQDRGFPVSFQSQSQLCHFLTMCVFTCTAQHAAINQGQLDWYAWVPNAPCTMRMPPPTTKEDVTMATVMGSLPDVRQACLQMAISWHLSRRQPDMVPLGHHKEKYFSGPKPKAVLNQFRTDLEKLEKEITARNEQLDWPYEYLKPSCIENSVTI

These compounds were tested against Polyunsaturated fatty acid lipoxygenase ALOX12 (Homo sapiens) (UniProt P18054) (assay: Primary qHTS assay for inhibitors of human arachidonate 12S-lipoxygenase (ALOX12): Round 2). Conditions: purified 12hLO, xylenol orange hydroperoxide absorbance; activity change, negative = inhibition: at 108 µM (top of the series).
Procedure, shortened: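 Purified human 12hLO (150 nM final) in 25 mM Hepes, 0.01% Triton X-100, pH 7.0 was preincubated 15 min at room temperature with compound. Then 40 uM arachidonic acid was added, 30 min. Hydroperoxide was read by Fe-XO absorbance ratio 573/405 nm.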
O=C1CC(=O)N(c2ccc(Cl)cc2Cl)C(=O)N1 was tested, and the Potency was inconclusive: 44.7 µM [inhibitor, partial curve, poor fit]. In the case of COc1ccc(-n2nc(C)c3c2NC(=O)CSC3c2cccc(O)c2)cc1 (stereo not drawn), the “activity change, negative = inhibition” value was inactive: -63.9%. In the case of O=C(O)CCCc1ccc(N(CCCl)CCCl)cc1, the Potency was “inactive and inconclusive: 9.07 µM [inhibitor, single point] and inconclusive: 39.8 µM [inhibitor, partial curve, poor fit]”. Nc1ncc2[nH]cnc2n1 was tested, and the Potency was inconclusive: 10 µM [inhibitor, full curve]. In the case of COc1cc2c(cc1OCc1ccncc1)NC(=O)C21CCN(C(=O)c2cccnc2)CC1, the “activity change, negative = inhibition” value was inactive: 60.3%. For CCN(CC)C(=O)c1ccc(NC(=O)c2cccc(S(=O)(=O)N3CCN(C)CC3)c2)cc1, the Potency was inconclusive: 100 µM [inhibitor, single point]. O=C(c1cnccn1)N1CCC2(CC1)CN(Cc1ccncc1)C2 was tested, and the Potency was inconclusive: 7.08 µM [inhibitor, single point]. CCOC(=O)c1ccc(N=C(C)c2c(O)[nH]c(=O)[nH]c2=O)cc1 was tested, and the Potency was inconclusive: 5.01 µM [inhibitor, full curve, poor fit]. In the case of COc1ccc(Cn2c(N)c(C(=O)NCc3ccco3)c3nc4ccccc4nc32)cc1, the “activity change, negative = inhibition” value was inactive: 0%. In the case of COCc1cc(N2CCN(C)C3(CCC(=O)N(C)CC3)C2)ncn1 (stereo not drawn), the Potency was inconclusive: 10 µM [inhibitor, full curve, poor fit]. In the case of CC(C)(C)n1nnnc1C(C1CC1)N1CCC2(CC1)C(=O)NCN2c1ccccc1 (stereo not drawn), the Potency was inconclusive: 141 µM [inhibitor, partial curve, poor fit]. With C=CCN1CCc2cccc3c2C1Cc1ccc(O)c(O)c1-3 (stereo not drawn) the Potency was inconclusive: 2.24 µM [inhibitor, full curve, poor fit]. In the case of Cc1ccc2c(c1)C1CN(C)CCC1N2C(=O)c1cccs1 (stereo not drawn), the “activity change, negative = inhibition” value was inactive: -0.018%. With CC/C(=N\N1CCCCC1)c1c(O)[nH]c(=O)[nH]c1=O the Potency was inconclusive: 39.8 µM [inhibitor, single point]. With C[C@]12CC[C@H](O)C[C@@H]1CC[C@H]1[C@H]3CCC(=O)[C@@]3(C)CC[C@@H]12 the “activity change, negative = inhibition” value was inactive: -15.1%. With NS(=O)(=O)c1nc[nH]c1[N+](=O)[O-] the “activity change, negative = inhibition” value was inactive: -10.5%. In the case of CC(Cc1ccccc1Sc1ccccc1O)N(C)C (stereo not drawn), the “activity change, negative = inhibition” value was inactive: 384%. In the case of O=C1NC(=O)C(=Cc2ccc(N3CCN(C(=O)c4ccccc4)CC3)c([N+](=O)[O-])c2)C(=O)N1, the Potency was inconclusive: 50.1 µM [inhibitor, partial curve, poor fit]. Cn1c(O)c(C(=NCCN2CCCCC2)c2ccccc2Cl)c(=O)n(C)c1=O was tested, and the “activity change, negative = inhibition” value was inactive: 0%. With CC(=NNC(=S)N1CC2CCC(CC2)C1)c1nccs1 the Potency was inconclusive: 44.7 µM [inhibitor, partial curve, poor fit]. With O=C(Nc1ccccc1)c1c(O)[nH]c(=O)[nH]c1=O the Potency was inconclusive: 44.7 µM [inhibitor, partial curve]. In the case of Cc1ccc(C)c(NC(=S)NCCc2cnc[nH]2)c1, the Potency was inconclusive: 112 µM [inhibitor, single point]. In the case of COc1cc(N2CCOCC2)ccc1C=C1C(=O)NC(=O)NC1=O, the “activity change, negative = inhibition” value was inactive: -20.2%. In the case of Clc1ccc(CNCCc2ccc3c(c2)OCO3)cc1, the Potency was active: 4.47 µM. CC(C)N1C(=O)NC(=O)C2(Cc3c(ccc4ccccc34)N(C)C2)C1=O (stereo not drawn) was tested, and the “activity change, negative = inhibition” value was inactive: -63.5%. COc1cc(C2c3cc4c(cc3CC3COC(=O)C32)OCO4)cc(OC)c1O (stereo not drawn) was tested, and the Potency was inconclusive: 44.7 µM [inhibitor, partial curve, poor fit]. O=C1C=CC(=O)C2C1C1(Cl)C(Cl)=C(Cl)C2(Cl)C1(Cl)Cl (stereo not drawn) was tested, and the Potency was inconclusive: 35.5 µM [inhibitor, partial curve, poor fit]. COc1cc(CN2CCCC(C(=O)c3sccc3C)C2)cc(Cl)c1O (stereo not drawn) was tested, and the Potency was inconclusive: 44.7 µM [inhibitor, partial curve, poor fit]. With COc1ccc(/C=C\[N+](=O)[O-])c(OC)c1 the “activity change, negative = inhibition” value was inactive: -7.77%. With COC(=O)C1=C(c2ccc(F)cc2F)C[C@@H]2CC[C@H]1N2C(=O)NCCOc1ccccc1 the “activity change, negative = inhibition” value was inactive: 8.84%. In the case of CN(C)[C@H]1CCCCN(C(=O)Cc2ccc(S(C)(=O)=O)cc2)C1, the “activity change, negative = inhibition” value was inactive: 1.99%. For O=C(O)C1=NOC2CN(Cc3ccccc3)CC12 (stereo not drawn), the Potency was inconclusive: 5.17 µM [inhibitor, single point]. With O=C1NC(=O)C(=Cc2ccc(-c3ccccc3[N+](=O)[O-])o2)C(=O)N1 the Potency was inconclusive: 35.5 µM [inhibitor, partial curve, poor fit]. In the case of NC1CC1c1ccccc1C(F)(F)F (stereo not drawn), the Potency was inconclusive: 35.5 µM [inhibitor, partial curve, poor fit]. In the case of CCCCn1c(C)c(C(=O)OCC)c2cc(OC)ccc21, the “activity change, negative = inhibition” value was inactive: 7.88%. In the case of CCn1cc(CN2CCCC(C(=O)c3cccc(C(F)(F)F)c3)C2)cn1 (stereo not drawn), the Potency was inconclusive: 141 µM [inhibitor, single point]. With CC(C)NC(=O)NC[C@H]1C[C@@H]2CCN1C[C@@H]2c1cc(-c2ccc3ccccc3c2)nn1C the “activity change, negative = inhibition” value was inactive: 45.8% [at 176 µM]. With C=CCCC1(CC(C)C)C(=O)NC(=S)NC1=O the Potency was inconclusive: 56.2 µM [inhibitor, partial curve, poor fit]. With C=CCN1CCc2cccc3c2[C@H]1Cc1ccc(O)c(O)c1-3 the Potency was active: 7.94 µM. For Cc1[nH]c2ccc(O)cc2c1CCN, the Potency was inconclusive: 31.6 µM [inhibitor, partial curve]. For O=C(NCC1=C(c2ccc3ccccc3c2)C[C@@H]2CC[C@H]1N2Cc1ccco1)c1ccc([N+](=O)[O-])cc1, the Potency was inconclusive: 56.2 µM [inhibitor, partial curve, poor fit]. For COC(=O)C1=C(c2cc3ccccc3s2)C[C@@H]2CC[C@H]1N2C(=O)N1CCCC1, the Potency was inconclusive: 44.7 µM [inhibitor, partial curve, poor fit]. In the case of C[N+]1(C)[C@@H]2CC[C@H]1CC(OC(=O)[C@@H](CO)c1ccccc1)C2 (stereo partly drawn), the Potency was active: 17.8 µM. For CCC(C)n1c(O)c(C(c2ccccn2)c2c(O)n(C(C)CC)c(=S)[nH]c2=O)c(=O)[nH]c1=S (stereo not drawn), the Potency was inconclusive: 1.12 µM [inhibitor, full curve, poor fit]. For CN1C(=O)C(=Cc2cccnc2)C(=O)N(C)C1=O, the Potency was inconclusive: 31.6 µM [inhibitor, single point]. For COc1ccccc1CC(=O)N1CCN(CCc2ccccc2)CC1, the “activity change, negative = inhibition” value was inactive: -29.1%. For O=C(c1ccncc1)N1CCC[C@@]2(CCN(Cc3nccs3)C2)C1, the Potency was inconclusive: 35.5 µM [inhibitor, single point]. With Cc1c(C=O)c2ccccc2n1Cc1cccc(F)c1 the “activity change, negative = inhibition” value was inactive: 0.57%. With OC[C@H]1O[C@@H](n2cnc3cc(Cl)c(Cl)cc32)[C@H](O)[C@@H]1O the “activity change, negative = inhibition” value was inactive: 9.32%. With c1ccc2sc(NC3=NCCN3)nc2c1 the “activity change, negative = inhibition” value was inactive: -8.37%. CO[C@H]1CC=C2CCN3CCC4=C(CC(=O)OC4)[C@]23C1 was tested, and the Potency was inconclusive: 28.2 µM [inhibitor, partial curve, poor fit]. In the case of CCCS(=O)(=O)N1CC[C@@H]2COCCN(C)[C@@H]2C1, the “activity change, negative = inhibition” value was inactive: 37.4%. For Cc1cccc(NP(=O)(Oc2ccccc2)Oc2ccccc2)c1C, the “activity change, negative = inhibition” value was inactive: -18.3%. With CN1C(=O)CN=C(c2ccccc2Cl)c2cc(Br)ccc21 the “activity change, negative = inhibition” value was inactive: 1.46%. For COP(=O)(OC)C1(Nc2ccc(C)cc2)CCCCC1, the Potency was inconclusive: 79.4 µM [inhibitor, single point]. In the case of COc1ccc(N2C(=O)NC(=O)/C(=C\c3ccccc3[N+](=O)[O-])C2=O)cc1, the Potency was inconclusive: 44.7 µM [inhibitor, partial curve, poor fit]. In the case of O=C(O)c1nn(Cc2ccc(Cl)cc2)c2ccccc12, the Potency was inconclusive: 35.5 µM [inhibitor, partial curve, poor fit]. For COc1ccc(NC(=O)N(Cc2ccc3c(c2)OCO3)C2CCN(Cc3ccccc3)CC2)cc1, the Potency was inconclusive: 100 µM [inhibitor, single point]. O=C1/C(=C\c2ccc(Br)cc2)N2CCC1CC2 was tested, and the Potency was inconclusive: 50.1 µM [inhibitor, partial curve, poor fit]. In the case of COC(=O)[C@H]1[C@H](CO)[C@H]2Cn3c(cccc3=O)[C@@H]1N2Cc1cocn1, the Potency was inconclusive: 89.1 µM [inhibitor, partial curve, poor fit]. With CCN1C(=O)NC(=O)/C(=C\c2cn(CC(=O)N3CCCCC3)c3ccccc23)C1=O the “activity change, negative = inhibition” value was inactive: -21.7%. CCOP(=S)(OCC)Oc1cc(C)oc(=O)c1Cl was tested, and the Potency was inconclusive: 31.6 µM [inhibitor, partial curve, poor fit]. COc1cc2c(cc1Oc1cccc(N(C)C)c1)NC(=O)C21CCN(c2ncc(F)cn2)CC1 was tested, and the Potency was inconclusive: 56.2 µM [inhibitor, partial curve, poor fit]. With CSc1ccc(CN2CCN(C(=O)COc3cccc(C)c3)CC2)cc1 the Potency was inconclusive: 282 nM [inhibitor, full curve, poor fit] and inconclusive: 1 µM [inhibitor, full curve, poor fit]. In the case of COc1cccc(CNCCc2cccc(F)c2)c1, the Potency was inconclusive: 0.398 µM [inhibitor, full curve, poor fit]. For O=C1NC(=O)C(=Cc2ccc(Sc3ccccc3)o2)C(=O)N1, the Potency was inconclusive: 39.8 µM [inhibitor, partial curve, poor fit]. In the case of ON1C2CCCCC2N(O)C1c1ccccc1F (stereo not drawn), the Potency was inconclusive: 28.2 µM [inhibitor, full curve, poor fit]. In the case of Cc1[nH]nc2c1C(c1ccc(-c3ccc(F)cc3)o1)SCC(=O)N2 (stereo not drawn), the Potency was inconclusive: 89.1 µM [inhibitor, single point].
